Data as given in PubChem BioAssay AID743454 (Peter MacCallum Cancer Centre, 2014).

Screen: 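Knock-downs lowering viability or raising caspase 3/7 activity in vorinostat-treated resistant cells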 (primary screen)
System: human HCT116-VR colon cancer cells, selected for vorinostat resistance
Knock-down reagent: siRNA pool against human genes, 40 nM siRNA pool
Time to read-out: vorinostat for 24 h, read-out about 72 h after transfection
Challenge: vorinostat at 2.5 µM final
Measurement: 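Two measures, CellTiter-Fluor viability and luminescent caspase 3/7 activity, each as fold change against same-plate mock wells, mean of duplicates, then screen-wide robust z-score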
Scale: viability robust z-score: higher = more viable cells than screen typical; caspase robust z-score: higher = more caspase 3/7 activity than screen typical
Hit rule: 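a knock-down is a hit when classed RV1 or RV2 for lowered viability, or CA1 or CA2 for caspase activation; those lethal without drug were dropped; hits were retested singly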
This is an unselected part of about 18,000 reagents tested. Of all reagents, 450 (2.5%) got an active call. 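Single biological run; no consistent viability z cut-off exists, so the class columns, not z-scores, define the calls.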 A number with no mark means an inactive call.

With CPSF4, what was measured?
viability hit class: no change; caspase hit class: no change; viability robust z-score: 0.1; caspase robust z-score: -1.25

What is on record for TBR1?
viability hit class: no change; caspase hit class: no change; viability robust z-score: 0.6; caspase robust z-score: 2.88

Which result is listed for LCE3E?
viability hit class: no change; caspase hit class: no change; viability robust z-score: 0.9; caspase robust z-score: -0.15

With RYR3, what does the deposit list?
viability hit class: no change; caspase hit class: no change; viability robust z-score: -0.98; caspase robust z-score: -0.04

With KCTD9, how do the results read?
viability hit class: no change; caspase hit class: no change; viability robust z-score: -0.26; caspase robust z-score: -0.44

With CYGB, how do the results read?
viability hit class: no change; caspase hit class: no change; viability robust z-score: 0; caspase robust z-score: -0.18

How did the screen score MED13?
viability hit class: no change; caspase hit class: no change; viability robust z-score: 0.23; caspase robust z-score: -0.29

What is on record for C1orf198?
viability hit class: no change; caspase hit class: no change; viability robust z-score: -1.18; caspase robust z-score: -0.55

For DAZAP1, what was measured?
viability hit class: no change; caspase hit class: no change; viability robust z-score: 1.71; caspase robust z-score: -0.58

With SPINK14, what does the deposit list?
viability hit class: no change; caspase hit class: no change; viability robust z-score: -0.22; caspase robust z-score: -1.04

With MYC, how do the results read?
viability hit class: no change; caspase hit class: no change; viability robust z-score: -1.44; caspase robust z-score: -1.07

For MARCHF7, what does the deposit list?
viability hit class: no change; caspase hit class: no change; viability robust z-score: -0.12; caspase robust z-score: 1.7

How did the screen score EPHA2?
viability hit class: no change; caspase hit class: no change; viability robust z-score: 0.36; caspase robust z-score: -0.13

What did the screen give for OTC?
viability hit class: no change; caspase hit class: no change; viability robust z-score: -0.46; caspase robust z-score: -0.08

With ZDHHC8, what was measured?
viability hit class: no change; caspase hit class: no change; viability robust z-score: -0.78; caspase robust z-score: 1.1

For WNK3, what was measured?
viability hit class: no change; caspase hit class: no change; viability robust z-score: 0.66; caspase robust z-score: -0.42

How did the screen score ANO2?
viability hit class: no change; caspase hit class: no change; viability robust z-score: 0.18; caspase robust z-score: -0.48

Which result is listed for PCNP?
viability hit class: no change; caspase hit class: no change; viability robust z-score: 0.93; caspase robust z-score: 0.34

How did the screen score TAAR8?
viability hit class: no change; caspase hit class: no change; viability robust z-score: 0.9; caspase robust z-score: -0.67

With CCM2, what was measured?
viability hit class: no change; caspase hit class: no change; viability robust z-score: 0.53; caspase robust z-score: 2.27

What is on record for IDH3A?
viability hit class: no change; caspase hit class: no change; viability robust z-score: -0.19; caspase robust z-score: -1.18

What did the screen give for ST6GALNAC6?
viability hit class: no change; caspase hit class: no change; viability robust z-score: -0.68; caspase robust z-score: 0.01

How did the screen score SNX7?
viability hit class: no change; caspase hit class: no change; viability robust z-score: 0.06; caspase robust z-score: 2.42

How did the screen score ANKRD37?
viability hit class: no change; caspase hit class: no change; viability robust z-score: -0.1; caspase robust z-score: -1.12

With FOCAD, how do the results read?
viability hit class: no change; caspase hit class: no change; viability robust z-score: 0.06; caspase robust z-score: -0.12

With ZNF445, what does the deposit list?
viability hit class: no change; caspase hit class: no change; viability robust z-score: 0.16; caspase robust z-score: 0.69

With HES1, how do the results read?
viability hit class: no change; caspase hit class: no change; viability robust z-score: -0.48; caspase robust z-score: 1.64

3 entries from above, reduced to “caspase robust z-score”.
DAZAP1	-0.58
SPINK14	-1.04
MYC	-1.07
